# Reference: paper PMC7917092
# Columns and labels:
# VvMYB14 [1] = target: T1, VvMYB14 (UniProt A8VPW3); assay: EMSA; settings: EMSA kit (Thermo Fisher Scientific) per manual; pH and temperature not stated; recombinant protein; protein details: His (pEASY-E1); label: biotin
# T1 sequence (looked up, limits assumed): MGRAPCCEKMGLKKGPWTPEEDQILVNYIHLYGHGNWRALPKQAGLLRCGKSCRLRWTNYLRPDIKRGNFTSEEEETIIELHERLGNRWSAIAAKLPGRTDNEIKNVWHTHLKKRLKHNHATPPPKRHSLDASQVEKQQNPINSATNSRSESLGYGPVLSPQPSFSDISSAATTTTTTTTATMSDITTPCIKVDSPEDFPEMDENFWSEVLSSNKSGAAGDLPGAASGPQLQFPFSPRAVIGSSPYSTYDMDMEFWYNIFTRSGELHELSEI
# VvMYB14 [2] = target: T1, VvMYB14; assay: competition with a labelled probe; settings: EMSA kit (Thermo Fisher Scientific) per manual, pH and temperature not stated, recombinant protein, protein details: His (pEASY-E1)
sequence,measurement,setting,value
CATGTCCCTGTGAACCTAACGTAAGGCA (double strand) [MBS probe (VvACS1 promoter)],binding result,VvMYB14 [1],binds
CATGTCCCTGTGAACCTAACGTAAGGCA (double strand) [MBS unlabeled competitor],binding result,VvMYB14 [2]; increasing unlabeled competitor gradually reduced binding of labeled MBS probe,binds
CATGTCCCTGTGTACATATCGTAAGGCA (double strand) [mutant MBS probe / competitor],binding result,"VvMYB14 [2]; mutated competitor did not compete with labeled MBS probe, label: biotin when used as probe, unlabeled as competitor",no binding

# The exact form of at least one protein or probe is not confirmed. For part of these data: No signal at the amounts used counts as a negative. Protein sequences can lack the tags named with them.
